From the supplement of paper PMC11438910
The other results are listed elsewhere or left out. The signal is at background level for most entries.

How the values were obtained:
Test in all cases: fluorescence intensity of antibody binding to polysaccharide-coupled beads; higher = stronger binding
[1] = target: pneumococcal polysaccharide Pn13
[2] = target: pneumococcal polysaccharide Pn14
[3] = target: pneumococcal polysaccharide Pn15A
[4] = target: pneumococcal polysaccharide Pn15B
[5] = target: pneumococcal polysaccharide Pn15C
[6] = target: pneumococcal polysaccharide Pn15F
[7] = target: pneumococcal polysaccharide Pn16A
[8] = target: pneumococcal polysaccharide Pn16F
[9] = target: pneumococcal polysaccharide Pn17A
[10] = target: pneumococcal polysaccharide Pn17F
[11] = target: pneumococcal polysaccharide Pn18A
[12] = target: pneumococcal polysaccharide Pn18B
[13] = antibody concentration 0.1 ng/mL
[14] = antibody concentration 0.534724 ng/mL
[15] = antibody concentration 2.8593 ng/mL
[16] = antibody concentration 15.2894 ng/mL
[17] = antibody concentration 81.7561 ng/mL
[18] = antibody concentration 437.17 ng/mL
[19] = antibody concentration 2337.65 ng/mL
[20] = antibody concentration 12500 ng/mL

B1: 3S41.3 (protein)
chain 1: EVQLVESGGGLVQPGGSLRLSCATSGFTFSNYWMYWFRQAPGKGLEWVSTISGSSSNTYYPDSVKGRFTISRDNAKNTLYLQINSLRAEDTAVYYCARRHDHSSGWAFDYWGQGVLVTVSS
chain 2: EIVMTQSPATLSLSPGERATLSCRASQSVGSNLAWYQQKPGQAPKLLIYDASSRATGIPDRFSGSGSGTDFTLTVSSLEPEDVGVYYCQQYNNWKTFGQGTKVEIK
**Q.** How did the fluorescence intensity [1, 13] turn out when B1 was run?
**A.** The fluorescence intensity was 19 MFI.

**Q.** What about the fluorescence intensity [1, 14] of the same binder?
**A.** The fluorescence intensity was 17.5 MFI.

**Q.** What about the fluorescence intensity [1, 15] of the same binder?
**A.** The fluorescence intensity was 18 MFI.

**Q.** And the fluorescence intensity [1, 16]?
**A.** The fluorescence intensity was 19.2 MFI.

**Q.** And the fluorescence intensity [1, 17]?
**A.** Its fluorescence intensity is 18.5 MFI.

**Q.** And the fluorescence intensity [1, 18]?
**A.** The fluorescence intensity was 20.5 MFI.

**Q.** And the fluorescence intensity [1, 19]?
**A.** The fluorescence intensity was 54.5 MFI.

**Q.** And the fluorescence intensity [1, 20]?
**A.** Its fluorescence intensity is 176 MFI.

**Q.** What about the fluorescence intensity [2, 13] of the same binder?
**A.** Its fluorescence intensity is 13.5 MFI.

**Q.** What about the fluorescence intensity [2, 14] of the same binder?
**A.** Its fluorescence intensity is 14.5 MFI.

**Q.** What about the fluorescence intensity [2, 15] of the same binder?
**A.** Its fluorescence intensity is 13.5 MFI.

**Q.** And the fluorescence intensity [2, 16]?
**A.** Its fluorescence intensity is 15 MFI.

**Q.** And the fluorescence intensity [2, 17]?
**A.** The fluorescence intensity was 18.5 MFI.

**Q.** And the fluorescence intensity [2, 18]?
**A.** The fluorescence intensity was 90.5 MFI.

**Q.** And the fluorescence intensity [2, 19]?
**A.** Its fluorescence intensity is 924 MFI.

**Q.** What about the fluorescence intensity [2, 20] of the same binder?
**A.** The fluorescence intensity was 1830 MFI.

**Q.** What about the fluorescence intensity [3, 13] of the same binder?
**A.** Its fluorescence intensity is 12 MFI.

**Q.** What about the fluorescence intensity [3, 14] of the same binder?
**A.** The fluorescence intensity was 12 MFI.

**Q.** And the fluorescence intensity [3, 15]?
**A.** The fluorescence intensity was 12.2 MFI.

**Q.** What about the fluorescence intensity [3, 16] of the same binder?
**A.** Its fluorescence intensity is 13 MFI.

**Q.** What about the fluorescence intensity [3, 17] of the same binder?
**A.** The fluorescence intensity was 13.5 MFI.

**Q.** And the fluorescence intensity [3, 18]?
**A.** Its fluorescence intensity is 13.2 MFI.

**Q.** What about the fluorescence intensity [3, 19] of the same binder?
**A.** The fluorescence intensity was 16.5 MFI.

**Q.** And the fluorescence intensity [3, 20]?
**A.** Its fluorescence intensity is 33.5 MFI.

**Q.** And the fluorescence intensity [4, 13]?
**A.** Its fluorescence intensity is 17.5 MFI.

**Q.** What about the fluorescence intensity [4, 14] of the same binder?
**A.** Its fluorescence intensity is 18.2 MFI.

**Q.** What about the fluorescence intensity [4, 15] of the same binder?
**A.** The fluorescence intensity was 19.5 MFI.

**Q.** And the fluorescence intensity [4, 16]?
**A.** Its fluorescence intensity is 19 MFI.

**Q.** And the fluorescence intensity [4, 17]?
**A.** Its fluorescence intensity is 21 MFI.

**Q.** What about the fluorescence intensity [4, 18] of the same binder?
**A.** Its fluorescence intensity is 26 MFI.

**Q.** What about the fluorescence intensity [4, 19] of the same binder?
**A.** Its fluorescence intensity is 33 MFI.

**Q.** And the fluorescence intensity [4, 20]?
**A.** The fluorescence intensity was 57 MFI.

**Q.** What about the fluorescence intensity [5, 13] of the same binder?
**A.** The fluorescence intensity was 17.2 MFI.

**Q.** And the fluorescence intensity [5, 14]?
**A.** The fluorescence intensity was 16.8 MFI.

**Q.** And the fluorescence intensity [5, 15]?
**A.** Its fluorescence intensity is 20 MFI.

**Q.** What about the fluorescence intensity [5, 16] of the same binder?
**A.** The fluorescence intensity was 17.5 MFI.

**Q.** And the fluorescence intensity [5, 17]?
**A.** The fluorescence intensity was 14.8 MFI.

**Q.** What about the fluorescence intensity [5, 18] of the same binder?
**A.** The fluorescence intensity was 19 MFI.

**Q.** And the fluorescence intensity [5, 19]?
**A.** Its fluorescence intensity is 27 MFI.

**Q.** What about the fluorescence intensity [5, 20] of the same binder?
**A.** The fluorescence intensity was 59.2 MFI.

**Q.** And the fluorescence intensity [6, 13]?
**A.** Its fluorescence intensity is 16.5 MFI.

**Q.** What about the fluorescence intensity [6, 14] of the same binder?
**A.** The fluorescence intensity was 16.5 MFI.

**Q.** And the fluorescence intensity [6, 15]?
**A.** Its fluorescence intensity is 16 MFI.

**Q.** And the fluorescence intensity [6, 16]?
**A.** The fluorescence intensity was 17.2 MFI.

**Q.** What about the fluorescence intensity [6, 17] of the same binder?
**A.** The fluorescence intensity was 17.5 MFI.

**Q.** And the fluorescence intensity [6, 18]?
**A.** Its fluorescence intensity is 20.8 MFI.

**Q.** What about the fluorescence intensity [6, 19] of the same binder?
**A.** Its fluorescence intensity is 30 MFI.

**Q.** And the fluorescence intensity [6, 20]?
**A.** Its fluorescence intensity is 60 MFI.

**Q.** And the fluorescence intensity [7, 13]?
**A.** The fluorescence intensity was 14 MFI.

**Q.** And the fluorescence intensity [7, 14]?
**A.** Its fluorescence intensity is 13 MFI.

**Q.** And the fluorescence intensity [7, 15]?
**A.** Its fluorescence intensity is 14 MFI.

**Q.** What about the fluorescence intensity [7, 16] of the same binder?
**A.** Its fluorescence intensity is 16 MFI.

**Q.** What about the fluorescence intensity [7, 17] of the same binder?
**A.** The fluorescence intensity was 14.5 MFI.

**Q.** And the fluorescence intensity [7, 18]?
**A.** Its fluorescence intensity is 17.2 MFI.

**Q.** And the fluorescence intensity [7, 19]?
**A.** The fluorescence intensity was 30.2 MFI.

**Q.** And the fluorescence intensity [7, 20]?
**A.** The fluorescence intensity was 87.5 MFI.

**Q.** What about the fluorescence intensity [8, 13] of the same binder?
**A.** Its fluorescence intensity is 23 MFI.

**Q.** What about the fluorescence intensity [8, 14] of the same binder?
**A.** Its fluorescence intensity is 23.2 MFI.

**Q.** And the fluorescence intensity [8, 15]?
**A.** The fluorescence intensity was 21.5 MFI.

**Q.** And the fluorescence intensity [8, 16]?
**A.** The fluorescence intensity was 24.5 MFI.

**Q.** What about the fluorescence intensity [8, 17] of the same binder?
**A.** The fluorescence intensity was 25.5 MFI.

**Q.** What about the fluorescence intensity [8, 18] of the same binder?
**A.** Its fluorescence intensity is 32 MFI.

**Q.** What about the fluorescence intensity [8, 19] of the same binder?
**A.** Its fluorescence intensity is 34 MFI.

**Q.** What about the fluorescence intensity [8, 20] of the same binder?
**A.** The fluorescence intensity was 74.8 MFI.

**Q.** And the fluorescence intensity [9, 13]?
**A.** Its fluorescence intensity is 21 MFI.

**Q.** What about the fluorescence intensity [9, 14] of the same binder?
**A.** The fluorescence intensity was 20 MFI.

**Q.** What about the fluorescence intensity [9, 15] of the same binder?
**A.** The fluorescence intensity was 19 MFI.

**Q.** And the fluorescence intensity [9, 16]?
**A.** Its fluorescence intensity is 20.2 MFI.

**Q.** What about the fluorescence intensity [9, 17] of the same binder?
**A.** The fluorescence intensity was 20 MFI.

**Q.** What about the fluorescence intensity [9, 18] of the same binder?
**A.** Its fluorescence intensity is 21.5 MFI.

**Q.** What about the fluorescence intensity [9, 19] of the same binder?
**A.** Its fluorescence intensity is 25.8 MFI.

**Q.** What about the fluorescence intensity [9, 20] of the same binder?
**A.** The fluorescence intensity was 56.5 MFI.

**Q.** And the fluorescence intensity [10, 13]?
**A.** Its fluorescence intensity is 24 MFI.

**Q.** And the fluorescence intensity [10, 14]?
**A.** Its fluorescence intensity is 25.5 MFI.

**Q.** And the fluorescence intensity [10, 15]?
**A.** Its fluorescence intensity is 26.2 MFI.

**Q.** And the fluorescence intensity [10, 16]?
**A.** Its fluorescence intensity is 25.5 MFI.

**Q.** What about the fluorescence intensity [10, 17] of the same binder?
**A.** Its fluorescence intensity is 27 MFI.

**Q.** What about the fluorescence intensity [10, 18] of the same binder?
**A.** The fluorescence intensity was 27.5 MFI.

**Q.** What about the fluorescence intensity [10, 19] of the same binder?
**A.** Its fluorescence intensity is 32 MFI.

**Q.** What about the fluorescence intensity [10, 20] of the same binder?
**A.** Its fluorescence intensity is 53.5 MFI.

**Q.** What about the fluorescence intensity [11, 13] of the same binder?
**A.** The fluorescence intensity was 23.5 MFI.

**Q.** What about the fluorescence intensity [11, 14] of the same binder?
**A.** The fluorescence intensity was 21.5 MFI.

**Q.** What about the fluorescence intensity [11, 15] of the same binder?
**A.** Its fluorescence intensity is 23.5 MFI.

**Q.** What about the fluorescence intensity [11, 16] of the same binder?
**A.** The fluorescence intensity was 23 MFI.

**Q.** And the fluorescence intensity [11, 17]?
**A.** The fluorescence intensity was 24.5 MFI.

**Q.** What about the fluorescence intensity [11, 18] of the same binder?
**A.** The fluorescence intensity was 23.8 MFI.

**Q.** And the fluorescence intensity [11, 19]?
**A.** The fluorescence intensity was 29.5 MFI.

**Q.** And the fluorescence intensity [11, 20]?
**A.** Its fluorescence intensity is 68.8 MFI.

**Q.** What about the fluorescence intensity [12, 13] of the same binder?
**A.** The fluorescence intensity was 30 MFI.

**Q.** What about the fluorescence intensity [12, 14] of the same binder?
**A.** The fluorescence intensity was 28 MFI.
